Percent effect of library compounds

Results are given as percent effect. The controls that fix the scale are not given in the record; negative values are as filed. Compounds were drawn at random from those tested, without regard to their results. Two or more numbers in one place are separate tests of the same structure; such repeats can differ widely.

A: 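Whole-cell growth test on Mycobacterium tuberculosis, read after 3 days in glucose-containing 7H9 medium; the read-out is not stated. Concentration: 50 µM. The record gives no direction; compounds that gave an IC50 in retests scored well above the rest, so higher reads as more growth inhibition. Size under these conditions: about 69,000 compounds, about 760 of them at 50% or above in at least one test.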
B: 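Growth of Mycobacterium tuberculosis over 4 days (cholesterol / DPPC medium with tyloxapol); the read-out is not stated. Compounds at 50 µM. Higher reads as more growth inhibition (inferred: compounds with an IC50 in retests scored well above the rest). Size under these conditions: about 69,000 compounds, about 370 of them at 50% or above in at least one test.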

| # | SMILES | A | B |
|---|---|---|---|
| 1 | `CCC(O)CN1CCN(C(=O)c2cccn2Cc2cccnc2)CC1` (stereo not drawn) | -19.06 | -11.91 |
| 2 | `O=C(NCc1ccccn1)C1=NN(c2ccccc2)C(=O)CN1` | -18.51 | -12.84 |
| 3 | `OCC(O)CN(CCN1CCOCC1)Cc1ccco1` (stereo not drawn) | -40.33 and 9.55 | 7.879 |
| 4 | `CC(C)N1CC[C@H](c2nc3ccc(C(F)(F)F)cc3[nH]2)C1` | -2.745 and 17.79 | 12.3 |
| 5 | `COC(=O)c1ccc(Cn2nc(C)cc2C)c(OC)c1` | 4.183 | 2.772 |
| 6 | `Cn1cccc1C(=O)N1CCCC1c1ccc(CN2CCOCC2)cn1` (stereo not drawn) | 24.34 | 1.296 and 4.276 |
| 7 | `O=C(O)c1ccn(-c2ccc(NC(=O)c3ccccc3Cl)cc2)n1` | -0.8364 | 2.536 |
| 8 | `O=C(O)C(F)(F)F.[H][C@@]12CN(Cc3[nH]cnc3C)C[C@]1([H])OCCN2c1ncccn1` | 25.66 | -2.743 |
| 9 | `[H][C@]12CCCN(S(=O)(=O)c3ccc(Cl)s3)[C@@]1([H])CN(C(=O)CC(C)C)C2` | 22.49 | -19.71 |
| 10 | `CCC(CO)NC(=O)Cc1ccc(NC(=O)CC2=CCCCC2)cc1` (stereo not drawn) | 6.23 and -4.82 | 12.39 and 56.26 |
| 11 | `O=C(O)C(F)(F)F.[H][C@@]12CCN(Cc3ccc4c(c3)OCO4)C[C@]1(C(=O)NC(C)C)CCO2` | -14.01 | -9.203 |
| 12 | `CCC(NC(=O)COC)c1ccccc1OCC(=O)N1CCCC1` (stereo not drawn) | -18.8 | -3.265 |
| 13 | `O=C(c1occc1CN1C(=O)Cc2ccccc21)N1CCCCCC1` | 11.31 | 7.617 |
| 14 | `Cc1ccc([C@@H]2CN(S(=O)(=O)c3cc(C)ccc3F)C[C@H]2N(C)C)cc1` | 28.71 and 40.66 | 29.83 |
| 15 | `COC(=O)c1ccoc1CN(C)CC(=O)NC1CC1` | -3.146 | 5.466 |
| 16 | `O=C(O)C(F)(F)F.O=C(O)C(F)(F)F.c1cnc(N2CCCC3(CCN(c4ncccn4)C3)C2)nc1` (stereo not drawn) | 14.06 | 0.5427 |
| 17 | `CCCc1noc(C2CC(=O)N(Cc3ccccc3)C2)n1` (stereo not drawn) | 16.4 | 7.659 |
| 18 | `CCOCCCNC(=O)C1(C)CCC(=O)N1c1cc(OC)ccc1OC` (stereo not drawn) | 23.94 | 7.452 |
| 19 | `CCn1cnnc1Cn1cccc(C(F)(F)F)c1=O` | 9.78 | -4.561 |
| 20 | `O=S(=O)(NCC(O)c1ccoc1)c1ccc(Cl)s1` (stereo not drawn) | 32.69 | -45.01 |
| 21 | `Cc1cccc(CN2CCC3(CCCN(CC(=O)N(C)C)C3)C2)n1.O=C(O)C(F)(F)F` (stereo not drawn) | -6.472 | -10.06 |
| 22 | `CCc1nccn1C1CCCN(C(=O)c2cnn3ccc(C)nc23)C1` (stereo not drawn) | 41.78 | 6.123 |
| 23 | `Cn1cc(CNCCNc2ncc(Cl)cc2Cl)cn1` | -35.49 | -16.96 |
| 24 | `[H][C@]12CN(Cc3cccc(F)c3F)C[C@]1([H])N(C1CCOCC1)C(=O)CO2` | -47.59 | -3.443 |
| 25 | `CCNc1ccnc(CN2CCCC2C(=O)Nc2nccs2)c1` (stereo not drawn) | 4.173 | 8.542 |
| 26 | `CCC(=O)Nc1cc(Cl)ccc1C(=O)N(C)Cc1noc(CC)n1` | 12.08 | 3.877 |
| 27 | `CC(NCc1nnc2n1CCCC2)c1nc(C(C)(C)C)no1` (stereo not drawn) | 4.089 and -4.065 | 6.176 |
| 28 | `Cc1cc(CN2CC3(CCN(C(=O)C4CC4)CC3)CC2C(=O)O)oc1C` (stereo not drawn) | 23.2 | 10.57 |
| 29 | `O=C(CCc1ccco1)Nc1ccc(Br)cn1` | 27.81 | -0.91 |
| 30 | `CN(C)c1ncc(CN2CCCC(Nc3ccc4c(c3)OCCO4)C2)s1` (stereo not drawn) | -0.9317 and -1.423 | 14.63 |
| 31 | `Cc1cc(N2CCN(Cc3ccccc3)CC(O)C2)nc(N)n1` (stereo not drawn) | -7.063 | 0.6939 |
| 32 | `CN(Cc1cccc(C(N)=O)c1)Cc1nc2c(cnn2C)c(=O)[nH]1` | 10.75 | -12.46 |
| 33 | `CCCn1nc2c(cc1=O)CN(CC(=O)Nc1cc(C)no1)CC2` | -9.695 | -34.71 |
| 34 | `Cc1cnn(CCNCc2nc(-c3ccccc3Cl)no2)c1` | -26.45 | 10.3 |
| 35 | `CCc1nnsc1C(=O)N1CCCC(COc2ccc(F)cc2)C1` (stereo not drawn) | 27.19 and 6.973 | 12.18 and 21.75 |
| 36 | `CCn1cc(S(=O)(=O)NC2CCCC2)cn1` | 35.87 | 0.595 |
| 37 | `CC(C)Cn1cnc(S(=O)(=O)NCCc2nnc3ccccn23)c1` | -16.08 and -10.08 | -22.14 |
| 38 | `Cc1cnc(N2CC(C(=O)N3CCOCC3)C3(CCOCC3)C2)nc1` (stereo not drawn) | -1.663 and -17.43 | -11.93 |
| 39 | `O=C(O)C(F)(F)F.[H][C@@]12CCN(c3ncc(F)cn3)C[C@]1([H])O[C@@H](C(=O)N1CCN(C)CC1)C2` | -13.84 | -25.1 |
| 40 | `[H][C@@]12CN(C(=O)N(C)C)C[C@]1([H])C(=O)NC21CCN(C(=O)COC)CC1` | -1.284 | 0.4232 |
| 41 | `COCCO[C@@H]1CCN(C(=O)c2ccnnc2)[C@H]1Cc1cnn(C)c1` | -9.929 | -21.15 |
| 42 | `N#CC1COCCN1C(=O)c1ccc2[nH]ccc2c1` (stereo not drawn) | -5.588 | -11.15 |
| 43 | `CCOCC1CN(S(=O)(=O)N(C)C)Cc2cnn(C)c21.O=C(O)C(F)(F)F` (stereo not drawn) | -5.136 | -14 |
| 44 | `O=C(Nc1ccccc1)N1CCN(Cc2noc(C3CC3)n2)CC1` | -6.516 | -7.973 |
| 45 | `O=C(CN1CCCC1Cn1cncn1)Nc1cccnc1` (stereo not drawn) | -26.54 and -3.116 | -23.75 |
| 46 | `CC(NC(=O)N(C)Cc1cccc(OC(F)F)c1)c1nncn1C` (stereo not drawn) | 8.681 | -5.613 |
| 47 | `COc1ccc(O[C@H]2COCCN(Cc3cccc4c3OCO4)C2)cc1` | 8.91 and 31.92 | 15.53 |
| 48 | `Cc1cc(CCC(=O)N2CCCC2)nc(C2CCCN2)n1` (stereo not drawn) | -22.03 | 8.512 |
| 49 | `O=C(c1cc(F)ccc1F)C1CCN(C(=O)c2ccc(=O)[nH]n2)CC1` | -10.07 | 0.1483 |
| 50 | `COCCN1CCC2(C1)c1ccccc1S(=O)(=O)N2Cc1ccccc1.O=C(O)C(F)(F)F` (stereo not drawn) | -6.044 and 7.451 | -3.655 |
| 51 | `O=C(Nc1ccc(-n2cccn2)cc1)N1CCC(O)C1` (stereo not drawn) | -12.15 | -21.81 |
| 52 | `CN1CCN(Cc2cccnc2)Cc2cccnc21` | 9.408 | -12.46 |
| 53 | `[H][C@@]12CN(Cc3ccncc3)CC[C@]1([H])CN(c1cncnc1)C2` | 3.708 | -4.026 |
| 54 | `Cc1oc(C)c(C(=O)NS(=O)(=O)c2ccc3c(c2)OCCO3)c1Br` | 3.304 and 3.047 | -16.78 |
| 55 | `CC/C=C(\C)CN1CCC(CNC(=O)c2ccnc(N)c2)C1` (stereo not drawn) | 3.384 | 2.447 |
| 56 | `CCCc1n[nH]c(C2CN(CCNS(=O)(=O)CC)CCO2)n1` (stereo not drawn) | -19.13 | -3.322 |
| 57 | `CCC(CC)(CNC(=O)OC(C)(C)C)NC(=O)C1CCCO1` (stereo not drawn) | 17.68 and -2.658 | 10.75 |
| 58 | `CC(=O)c1cccc(OCC(=O)N(CC(C)C)C2CCN(C)CC2)c1` | -22.1 | 24.03 |
| 59 | `[H][C@@]12CCN(S(=O)(=O)N(C)C)C[C@@]1([H])O[C@@H](c1ccnc(C)n1)C2` | 21.26 | 6.011 |
| 60 | `NC(=O)c1ccc(NC(=O)N2CCN(c3cccs3)CC2)c(F)c1` | 17 and -28.82 | 19.56 |
| 61 | `CNC(=O)c1ccc(NC2CCN(CC(F)(F)F)C2=O)cc1Cl` (stereo not drawn) | -2.226 and -3.247 | -2.828 |
| 62 | `Cc1cccc(C2(C(=O)NCCCn3cccn3)CC2)c1` | 20.69 and 5.34 | 9.574 |
| 63 | `COc1ncc(NS(=O)(=O)c2ccc(OC)c(C)c2)c(OC)n1` | -11.81 | -1.612 |
| 64 | `CN(C(=O)CCc1nc(C2CC2)no1)c1cc(C#N)c2ccccc2n1` | -0.2388 and -7.383 | -0.9001 |
| 65 | `[H][C@]12CC[C@]([H])(CN(C(=O)N(C)C)C1)N(C/C=C/c1ccc(F)cc1)C2` | 12.57 | 6.765 |
| 66 | `N#Cc1ccc(C(=O)NCCCNc2ccc(C(F)(F)F)cn2)cc1` | 19.44 | 29.3 |
| 67 | `CC(NCc1cnn(C)c1)c1ccc(OCc2nccn2C)cc1` (stereo not drawn) | -0.7476 | -4.108 |
| 68 | `Cc1cc(NC(=O)CN2CCn3c(C)nnc3C2)no1` | 17.37 | 13.67 |
| 69 | `CC(=O)N1CCN(CC(N)=O)CC(COc2ccccc2)C1` (stereo not drawn) | -18.16 | -19.42 |
| 70 | `CN(C(=O)COc1ccc(F)cc1)[C@@H]1CC[C@@H](n2ccnc2)[C@@H]1O` | -0.8129 | 16.19 |

Some entries from above, unchanged:

SMILES,A,B
CN(Cc1cccc(C(N)=O)c1)Cc1nc2c(cnn2C)c(=O)[nH]1,10.75,-12.46
CCn1cc(S(=O)(=O)NC2CCCC2)cn1,35.87,0.595
CCCn1nc2c(cc1=O)CN(CC(=O)Nc1cc(C)no1)CC2,-9.695,-34.71
Cc1cc(CCC(=O)N2CCCC2)nc(C2CCCN2)n1 (stereo not drawn),-22.03,8.512

The values are deposited in ChEMBL (CHEMBL3988442, “University of Dundee, Small-Polar-MMV Screening Library” (2021)).